Binding data for one molecule are collected here from PMC6093649.

The target in this experiment is FLAG-tagged Chp2 (F-Chp2) expressed from the endogenous chp2+ locus (S. pombe) (UniProt O42934). As to the kind of experiment: SEC; native whole-cell lysate of S. pombe on HiLoad 16/600 Superdex 200 (50 mM Tris-HCl pH 7.5, 150 mM NaCl, 0.05% Tween 20, 2 mM DTT, 4°C); fractions analysed by western blotting. On the technique in general: Size exclusion chromatography separates by hydrodynamic size, large species first.

No constants are given. Whether binding was seen depends on the method and setting. Some entries that bind do so weakly or less than the wild type. Tags and fused reporters may be left off the sequences shown.

B1: FLAG-tagged Chp2 (F-Chp2) expressed from the endogenous chp2+ locus (protein, UniProt O42934 1-380)
chain: MVKSADLDLMNSIISESDENFSPPPFTVEEAENSINNKSSTASLESPQNGSWHPSLYGLSVPEKTHIQNSLDLYSHGNSGSQKTHNVSFSCEIRKVKSSKLSPISNMEDSEDKKEEDESSSYKNEFKSSSSASVSSNFEKTSGSDDHNSQSPVPLNEGFEYIASSGSEDKNSDEEFAVEMILDSRMKKDGSGFQYYLKWEGYDDPSDNTWNDEEDCAGCLELIDAYWESRGGKPDLSSLIRLTRSRARSSNEASYVEKDESSNSDDSISYKRRRSRNAANRITDYVDSDLSESSMKEKQSKIEKYMKSDKSSKNFKPPFQKKSWEDLVDCVKTVQQLDNGKLIAKIKWKNGYVSTHDNIIIHQKCPLKIIEYYEAHIKFT
Consider B1, for which the binding entry is “binds”.
